Source: publication doi:10.1101/2025.07.31.668009
No constants are given. Whether binding was seen depends on the method and setting. For part of these data: Binding seen in cells or lysates may run through a third protein. Where a sequence is shown, tags or fusion partners need not be part of it.

Legend:
[1] = biological target: T1, ERL2CD (cytoplasmic domain of ERL2), yeast two-hybrid fusion (Arabidopsis) (UniProt Q6XAT2); assay: two-hybrid
T1 sequence: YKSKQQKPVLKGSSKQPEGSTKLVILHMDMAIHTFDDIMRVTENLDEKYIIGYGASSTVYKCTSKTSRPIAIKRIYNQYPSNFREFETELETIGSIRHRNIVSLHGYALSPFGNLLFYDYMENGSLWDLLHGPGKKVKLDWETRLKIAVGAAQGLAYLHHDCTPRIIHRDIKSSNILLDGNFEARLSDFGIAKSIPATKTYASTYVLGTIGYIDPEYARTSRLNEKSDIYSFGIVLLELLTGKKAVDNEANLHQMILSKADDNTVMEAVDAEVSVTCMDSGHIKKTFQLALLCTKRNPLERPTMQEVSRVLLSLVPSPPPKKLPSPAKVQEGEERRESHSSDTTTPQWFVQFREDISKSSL

[2] = biological target: T2, ERECTACD (cytoplasmic domain of ERECTA), yeast two-hybrid fusion (Arabidopsis) (UniProt Q42371); assay: two-hybrid
T2 sequence: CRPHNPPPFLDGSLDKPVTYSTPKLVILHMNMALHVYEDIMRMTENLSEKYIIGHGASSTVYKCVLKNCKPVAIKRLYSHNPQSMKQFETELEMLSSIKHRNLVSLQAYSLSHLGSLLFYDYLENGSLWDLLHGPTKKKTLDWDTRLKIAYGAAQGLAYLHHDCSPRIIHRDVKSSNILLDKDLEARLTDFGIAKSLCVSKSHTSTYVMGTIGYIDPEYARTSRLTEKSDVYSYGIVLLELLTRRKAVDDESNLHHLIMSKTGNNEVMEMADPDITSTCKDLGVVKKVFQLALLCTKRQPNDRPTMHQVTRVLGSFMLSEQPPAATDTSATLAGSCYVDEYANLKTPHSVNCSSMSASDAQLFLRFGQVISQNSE

[3] = biological target: T3, ERL1CD (cytoplasmic domain of ERECTA-LIKE 1), yeast two-hybrid fusion (Arabidopsis) (UniProt C0LGW6); assay: two-hybrid
T3 sequence: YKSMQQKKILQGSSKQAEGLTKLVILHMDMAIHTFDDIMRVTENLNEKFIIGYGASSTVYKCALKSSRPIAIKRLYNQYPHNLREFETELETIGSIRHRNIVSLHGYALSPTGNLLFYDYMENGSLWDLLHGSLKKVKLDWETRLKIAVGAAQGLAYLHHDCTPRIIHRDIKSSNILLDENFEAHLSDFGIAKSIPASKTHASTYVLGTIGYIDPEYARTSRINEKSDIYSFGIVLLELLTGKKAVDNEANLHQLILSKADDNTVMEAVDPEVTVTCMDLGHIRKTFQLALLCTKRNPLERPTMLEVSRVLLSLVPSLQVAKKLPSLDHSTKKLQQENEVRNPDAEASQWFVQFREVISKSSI

[4] = biological target: T4, ERL1CD (cytoplasmic domain of ERECTA-LIKE 1), BiFC fusion (Arabidopsis) (UniProt C0LGW6); assay: split reporter
T4 sequence: T3 sequence

[5] = biological target: T5, ERL2CD (cytoplasmic domain of ERL2), BiFC fusion (Arabidopsis) (UniProt Q6XAT2); assay: split reporter
T5 sequence: T1 sequence

[6] = biological target: T6, ERECTACD (cytoplasmic domain of ERECTA), BiFC fusion (Arabidopsis) (UniProt Q42371); assay: split reporter
T6 sequence: T2 sequence

Measured: binding

B1: AP2μ (medium subunit of the AP2 complex), yeast two-hybrid fusion (protein, UniProt O23140 1-438)
chain: MPVAASAIYFLNLRGDVLINRTYRDDVGGNMVDAFRTHIMQTKELGNCPVRQIGGCSFVYMRISNVYIVIVVSSNANVACGFKFVVEAVALFKSYFGGAFDEDAIRNNFVLIYELLDEIMDFGYPQNLSPEILKLYITQEGVRSPFSSKPKDKPVPNATLQVTGAVGWRREGLAYKKNEVFLDIVESVNLLMSSKGNVLRCDVTGKVLMKCFLSGMPDLKLGLNDKIGLEKESEMKSRPAKSGKTIELDDVTFHQCVNLTRFNSEKTVSFVPPDGEFELMKYRITEGVNLPFRVLPTIKELGRTRMEVNVKVKSVFGAKMFALGVVVKIPVPKQTAKTNFQVTTGRAKYNPSIDCLVWKIRKFPGQTESTLSAEIELISTMGEKKSWTRPPIQMEFQVPMFTASGLRVRFLKVWEKSGYNTVEWVRYITKAGSYEIRC
no binding: [1] | [2] | [3]

B2: AP2μ (medium subunit of the AP2 complex), BiFC fusion (protein, UniProt O23140 1-438)
chain: B1 chain
no binding: [4] | [5] | [6]
